{"source": "patent US20220289795", "about": "“EFFICIENT METHOD FOR PREPARING PPR PROTEIN AND USE OF THE SAME” (EditForce, Inc., published 2022)", "key": {"[1]": {"tested_on": "T1, v1_PPRsp6 (Artificial Sequence)", "T1 sequence": "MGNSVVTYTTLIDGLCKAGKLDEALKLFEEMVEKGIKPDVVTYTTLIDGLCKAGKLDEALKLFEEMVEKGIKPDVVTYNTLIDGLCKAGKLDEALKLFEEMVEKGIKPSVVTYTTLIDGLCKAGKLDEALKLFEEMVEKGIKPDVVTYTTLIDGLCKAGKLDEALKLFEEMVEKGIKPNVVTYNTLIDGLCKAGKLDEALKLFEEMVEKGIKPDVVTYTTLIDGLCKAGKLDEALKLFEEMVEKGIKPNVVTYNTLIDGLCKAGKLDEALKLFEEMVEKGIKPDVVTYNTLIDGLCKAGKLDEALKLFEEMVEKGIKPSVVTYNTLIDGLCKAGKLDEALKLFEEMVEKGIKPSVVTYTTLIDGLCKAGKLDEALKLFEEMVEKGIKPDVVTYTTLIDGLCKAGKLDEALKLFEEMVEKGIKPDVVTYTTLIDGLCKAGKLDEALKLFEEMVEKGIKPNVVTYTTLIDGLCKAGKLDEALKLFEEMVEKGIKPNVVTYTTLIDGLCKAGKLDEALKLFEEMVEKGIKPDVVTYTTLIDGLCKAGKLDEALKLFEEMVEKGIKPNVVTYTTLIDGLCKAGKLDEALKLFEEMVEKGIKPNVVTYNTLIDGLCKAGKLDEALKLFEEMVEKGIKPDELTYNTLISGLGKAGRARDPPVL", "test": "activity in cells", "conditions": "splicing ratio of RG6 changed, HEK293T; protein in cells; protein details: N-term NLS, C-term FLAG; only the site is given"}, "[2]": {"tested_on": "T2, v2_PPRsp6 (Artificial Sequence)", "T2 sequence": "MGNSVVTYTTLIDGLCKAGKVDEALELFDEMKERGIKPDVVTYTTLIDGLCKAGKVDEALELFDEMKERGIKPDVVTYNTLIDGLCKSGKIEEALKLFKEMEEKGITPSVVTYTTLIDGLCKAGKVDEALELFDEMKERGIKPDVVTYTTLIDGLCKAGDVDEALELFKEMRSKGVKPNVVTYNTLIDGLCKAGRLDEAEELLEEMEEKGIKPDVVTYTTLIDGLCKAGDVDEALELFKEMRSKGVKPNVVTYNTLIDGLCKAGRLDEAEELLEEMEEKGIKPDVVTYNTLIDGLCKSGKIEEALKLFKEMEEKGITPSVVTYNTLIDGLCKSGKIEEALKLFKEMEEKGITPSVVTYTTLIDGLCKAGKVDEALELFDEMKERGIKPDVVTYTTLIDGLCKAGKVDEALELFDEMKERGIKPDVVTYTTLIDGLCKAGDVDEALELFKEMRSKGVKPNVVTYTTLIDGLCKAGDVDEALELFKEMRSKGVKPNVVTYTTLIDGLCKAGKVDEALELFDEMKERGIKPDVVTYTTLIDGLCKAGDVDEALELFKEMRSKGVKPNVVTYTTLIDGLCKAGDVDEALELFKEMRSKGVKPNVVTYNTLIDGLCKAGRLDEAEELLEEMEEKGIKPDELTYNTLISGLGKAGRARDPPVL", "test": "activity in cells", "conditions": "larger splicing change than v1, HEK293T; protein in cells; protein details: N-term NLS, C-term FLAG; only the site is given"}}, "note": "Where a protein sequence is shown, tags need not be part of it."}
{"sequence": "GGCGAUAUCCGGAAGAAU [T82 (RG6 reporter)]", "values": [{"measurement": "functional effect", "setting": "[1]", "value": "active"}, {"measurement": "functional effect", "setting": "[2]", "value": "active"}]}
